Reference: PubChem BioAssay AID686978 (National Center for Advancing Translational Sciences (NCATS), 2013)
The entries are a selection whose mix differs from that of the whole data set. Records with an inconclusive call do not appear. Activity calls are given as the source filed them. Calls follow the shape of the dose curve; as a rule, active = well fitted inhibition curve with a large enough effect; inconclusive = small, poorly fitted or top-dose-only effect; inactive = flat fitted curve, though single readings scatter.

Assay: qHTS for Inhibitors of human tyrosyl-DNA phosphodiesterase 1 (TDP1): qHTS in cells in absence of CPT; also: nearly all actives have a fitted effect of over 55% in size
Conditions: DT40 Tdp1-/- hTDP1 cells, no CPT, ATP luminescence, 48 h
Source text: Human tyrosyl-DNA phosphodiesterase 1 (TDP1) is a novel repair gene, and we propose to use it as a new target for anticancer drug development. TDP1 is not an essential protein, but under treatment with topoisomerase I poison (camptothecin: CPT), TDP1 works as a critical factor for cell survival. To directly identify novel TDP1 inhibitors active in a cellular environment, we have knocked-out the Tdp1 gene in chicken DT40 cells (Tdp1-/-) and generated a complemented counterpart cells that contains a stable transfection of the human TDP1 gene (Tdp1-/-;hTDP1 cells). For the primary screen, Tdp1-/-;hTDP1 cells will be exposed to small molecules in the presence or absence of CPT, and their growth kinetics will be evaluated after 48 hours by measuring ATP activity. […] The hit compounds will then be evaluated in the presence or absence of CPT using Tdp1-/- cells. […] In tertiary assays, biochemical gel-based assays will be used to assess whether the hit compounds specifically target TDP1.
To this end, we have screened this cell line against the MLSMR in two primary screens. In one screen we add CPT and in the other we screen in the absence of CPT; this AID represents the screen where CPT was absent.
NIH Chemical Genomics Center [NCGC]
NIH Molecular Libraries Probe Centers Network [MLPCN]
Assay Submitter (PI): Yves Pommier, NCI
DT40-hTDP1 cells without 20 nM Camptothecin (add 20 microL of DMSO in 1 L of cell culture medium) were dispensed at 400 cells/5microL/well in tissue culture treated 1536-well white wall/solid bottom assay plates (Greiner Bio-One North America, NC, U.S.A.) using a Multidrop Combi 8 channel dispenser (Thermo Fisher, Waltham, MA, USA). 23 nL compounds and controls were transferred using the pin tool (Kalypsys, San Diego, CA, USA) to the assay plates. The assay plates were then incubated at 37 masculineC for a minimum 48 hr. Three microL of Cell Titer Glo solution was added to the plates and incubated at RT in dark for 30 min. Luminescence was read using ViewLux (Perkin Elmer) with 1 sec exposure slow speed, high gain and 2x binning.
Potency is read from the fitted curve at half-maximal effect.

SMILES | Potency
COc1c(O)cc2c(c1OC)-c1ccc(SC)c(=O)cc1C(NC(C)=O)CC2 (stereo not drawn) | active: 116 nM
COc1cc2c(c(OC)c1OC)-c1ccc(SC)c(=O)cc1C(NC(C)=O)CC2 (stereo not drawn) | active: 18.4 nM
COc1c(O)cc2c(c1OC)-c1ccc(OC)c(=O)cc1C(NC(C)=O)CC2 (stereo not drawn) | active: 146 nM
